# Test results as given in paper PMC3460915.
# For some of these results: A negative result means that nothing was seen under these conditions. For some of these results: Construct, isoform or probe ends are uncertain for at least one entry. For some of these results: A weaker result is weaker than the reference pair of the same experiment. For some of these results: Protein sequences can lack the tags named with them.
# Legend:
# BSA [1] = molecular target: BSA (UniProt P02769); assay: SA-bead flow cytometry (allosteric beacon); details: 500 nM, SA beads; 1x PBS (137 mM NaCl, 2.7 mM KCl, 10 mM Na2HPO4, 2.0 mM KH2PO4), pH 7.4, 37 C, 45 min, 200 uL; K+ varied in Fig 4; commercial protein; label: 3' FAM; folded or branched DNA
# Streptavidin (SA beads) = Streptavidin (SA beads) (UniProt P22629); assay: SA-bead flow cytometry (allosteric beacon); details: no AGR2; 1x PBS (137 mM NaCl, 2.7 mM KCl, 10 mM Na2HPO4, 2.0 mM KH2PO4), pH 7.4, 37 C, 45 min, 200 uL; K+ varied in Fig 4; commercial protein; label: 3' FAM; folded or branched DNA
# Trypsin [2] = assay: SA-bead flow cytometry (allosteric beacon); details: 500 nM, SA beads; 1x PBS (137 mM NaCl, 2.7 mM KCl, 10 mM Na2HPO4, 2.0 mM KH2PO4), pH 7.4, 37 C, 45 min, 200 uL; K+ varied in Fig 4; commercial protein; label: 3' FAM; folded or branched DNA
# BSA [3] = molecular target: BSA (UniProt P02769); assay: flow cytometry bead binding; details: NHS-Sepharose coupled, 'no or little'; 1x PBS (137 mM NaCl, 2.7 mM KCl, 10 mM Na2HPO4, 2.0 mM KH2PO4), pH 7.4, 37 C, 45 min, 200 uL; K+ varied in Fig 4; commercial protein; label: 3' FAM; folded or branched DNA
# [4] = molecular target: T1, GST-AGR2 (on GSH-Sepharose beads) (UniProt O95994); assay: flow cytometry bead binding; details: no K+; 1x PBS (137 mM NaCl, 2.7 mM KCl, 10 mM Na2HPO4, 2.0 mM KH2PO4), pH 7.4, 37 C, 45 min, 200 uL; K+ varied in Fig 4; recombinant protein; label: 3' FAM; folded or branched DNA
# T1 sequence (looked up, limits assumed): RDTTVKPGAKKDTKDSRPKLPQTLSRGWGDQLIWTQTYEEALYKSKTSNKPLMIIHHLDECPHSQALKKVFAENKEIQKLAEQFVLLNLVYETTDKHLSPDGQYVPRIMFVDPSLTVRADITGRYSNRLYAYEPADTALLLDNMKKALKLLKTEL
# Thrombin = assay: flow cytometry bead binding; details: NHS-Sepharose coupled, 'no or little'; 1x PBS (137 mM NaCl, 2.7 mM KCl, 10 mM Na2HPO4, 2.0 mM KH2PO4), pH 7.4, 37 C, 45 min, 200 uL; K+ varied in Fig 4; commercial protein; label: 3' FAM; folded or branched DNA
# Trypsin [5] = assay: flow cytometry bead binding; details: NHS-Sepharose coupled, 'no or little'; 1x PBS (137 mM NaCl, 2.7 mM KCl, 10 mM Na2HPO4, 2.0 mM KH2PO4), pH 7.4, 37 C, 45 min, 200 uL; K+ varied in Fig 4; commercial protein; label: 3' FAM; folded or branched DNA
Sequence,binding result (BSA [1]),binding result (Streptavidin (SA beads)),binding result (Trypsin [2]),binding result (BSA [3]),binding result [4],binding result (Thrombin),binding result (Trypsin [5])
CGACGCACCGATCGCAGGTTCGGGATTTTCGGGTGGGAGTTGTGGGGGGGGGTGGGAGGGTT [AGR2-aMB],no binding,no binding,no binding,–,–,–,–
CGGGTGGGAGTTGTGGGGGGGGGTGGGAGGGTT [C14B1],–,–,–,no binding,binds more weakly,no binding,no binding
